Tested on: Plasmodium falciparum 3D7
Experiment: Antimalarial assay
Type: cell-based
Conditions: 3D7, 72 h, read-out: Antimalarial IC50

## CCN(CC)CCCC(C)Nc1ccnc2cc(Cl)ccc12 (stereo not shown) [Chloroquine, reference compound]
  IC50: 280 ± 30 nM
